Assay results taken from ChEMBL document CHEMBL4316593 (Eur J Med Chem, 2019).
This continues a long series; more values of the same kind are listed elsewhere.

Columns and labels:
Assay type in all cases: cell-based
Conditions in all cases: U-87MG ATCC
[1] = Inhibition of RTK/PI3K/AKT/mTOR signaling in human U87 cells assessed as down regulation of DVL3 gene expression at cytotoxic IC50 measured after 48 hrs relative to control
[2] = Inhibition of RTK/PI3K/AKT/mTOR signaling in human U87 cells assessed as down regulation of UQCRQ gene expression at cytotoxic IC50 measured after 48 hrs relative to control
[3] = Inhibition of RTK/PI3K/AKT/mTOR signaling in human U87 cells assessed as down regulation of HIST1H1C gene expression at cytotoxic IC50 measured after 48 hrs relative to control
[4] = Inhibition of RTK/PI3K/AKT/mTOR signaling in human U87 cells assessed as up regulation of PWWP domain containing 2B gene expression at cytotoxic IC50 measured after 48 hrs relative to control
[5] = Inhibition of RTK/PI3K/AKT/mTOR signaling in human U87 cells assessed as down regulation of UTP6 gene expression at cytotoxic IC50 measured after 48 hrs relative to control
[6] = Inhibition of RTK/PI3K/AKT/mTOR signaling in human U87 cells assessed as down regulation of RNF168 gene expression at cytotoxic IC50 measured after 48 hrs relative to control
[7] = Inhibition of RTK/PI3K/AKT/mTOR signaling in human U87 cells assessed as down regulation of HIF1AN gene expression at cytotoxic IC50 measured after 48 hrs relative to control
[8] = Inhibition of RTK/PI3K/AKT/mTOR signaling in human U87 cells assessed as down regulation of CCNE2 gene expression at cytotoxic IC50 measured after 48 hrs relative to control
[9] = Inhibition of RTK/PI3K/AKT/mTOR signaling in human U87 cells assessed as up regulation of tensin 3 gene expression at cytotoxic IC50 measured after 48 hrs relative to control
[10] = Inhibition of RTK/PI3K/AKT/mTOR signaling in human U87 cells assessed as up regulation of long intergenic non-protein coding RNA 511 gene expression at cytotoxic IC50 measured after 48 hrs relative to control
[11] = Inhibition of RTK/PI3K/AKT/mTOR signaling in human U87 cells assessed as up regulation of DFFA gene expression at cytotoxic IC50 measured after 48 hrs relative to control
[12] = Inhibition of RTK/PI3K/AKT/mTOR signaling in human U87 cells assessed as down regulation of SCAF4 gene expression at cytotoxic IC50 measured after 48 hrs relative to control
[13] = Inhibition of RTK/PI3K/AKT/mTOR signaling in human U87 cells assessed as up regulation of HK1 gene expression at cytotoxic IC50 measured after 48 hrs relative to control
[14] = Inhibition of RTK/PI3K/AKT/mTOR signaling in human U87 cells assessed as up regulation of AGER gene expression at cytotoxic IC50 measured after 48 hrs relative to control
[15] = Inhibition of RTK/PI3K/AKT/mTOR signaling in human U87 cells assessed as up regulation of CACNB4 gene expression at cytotoxic IC50 measured after 48 hrs relative to control
[16] = Inhibition of RTK/PI3K/AKT/mTOR signaling in human U87 cells assessed as down regulation of MCM10 gene expression at cytotoxic IC50 measured after 48 hrs relative to control
[17] = Inhibition of RTK/PI3K/AKT/mTOR signaling in human U87 cells assessed as up regulation of nicalin gene expression at cytotoxic IC50 measured after 48 hrs relative to control
[18] = Inhibition of RTK/PI3K/AKT/mTOR signaling in human U87 cells assessed as up regulation of endoplasmic reticulum aminopeptidase 1 gene expression at cytotoxic IC50 measured after 48 hrs relative to control
[19] = Inhibition of RTK/PI3K/AKT/mTOR signaling in human U87 cells assessed as down regulation of AKAP13 gene expression at cytotoxic IC50 measured after 48 hrs relative to control
[20] = Inhibition of RTK/PI3K/AKT/mTOR signaling in human U87 cells assessed as down regulation of MAFB gene expression at cytotoxic IC50 measured after 48 hrs relative to control
[21] = Inhibition of RTK/PI3K/AKT/mTOR signaling in human U87 cells assessed as up regulation of laminin subunit beta 1 gene expression at cytotoxic IC50 measured after 48 hrs relative to control
[22] = Inhibition of RTK/PI3K/AKT/mTOR signaling in human U87 cells assessed as up regulation of MAFG-AS1 gene expression at cytotoxic IC50 measured after 48 hrs relative to control
[23] = Inhibition of RTK/PI3K/AKT/mTOR signaling in human U87 cells assessed as down regulation of SELENOK gene expression at cytotoxic IC50 measured after 48 hrs relative to control
[24] = Inhibition of RTK/PI3K/AKT/mTOR signaling in human U87 cells assessed as up regulation of FGFR4 gene expression at cytotoxic IC50 measured after 48 hrs relative to control
[25] = Inhibition of RTK/PI3K/AKT/mTOR signaling in human U87 cells assessed as up regulation of PTP4A2 gene expression at cytotoxic IC50 measured after 48 hrs relative to control
[26] = Inhibition of RTK/PI3K/AKT/mTOR signaling in human U87 cells assessed as up regulation of SLC5A1 gene expression at cytotoxic IC50 measured after 48 hrs relative to control
[27] = Inhibition of RTK/PI3K/AKT/mTOR signaling in human U87 cells assessed as down regulation of RGP1 gene expression at cytotoxic IC50 measured after 48 hrs relative to control
[28] = Inhibition of RTK/PI3K/AKT/mTOR signaling in human U87 cells assessed as down regulation of KLC2 gene expression at cytotoxic IC50 measured after 48 hrs relative to control
[29] = Inhibition of RTK/PI3K/AKT/mTOR signaling in human U87 cells assessed as up regulation of Meis homeobox 3 gene expression at cytotoxic IC50 measured after 48 hrs relative to control
[30] = Inhibition of RTK/PI3K/AKT/mTOR signaling in human U87 cells assessed as up regulation of KLF15 gene expression at cytotoxic IC50 measured after 48 hrs relative to control
[31] = Inhibition of RTK/PI3K/AKT/mTOR signaling in human U87 cells assessed as up regulation of adhesion G protein-coupled receptor A2 gene expression at cytotoxic IC50 measured after 48 hrs relative to control
[32] = Inhibition of RTK/PI3K/AKT/mTOR signaling in human U87 cells assessed as up regulation of eukaryotic elongation factor 2 kinase gene expression at cytotoxic IC50 measured after 48 hrs relative to control

Molecule `CC(=O)C(=NNc1ccccc1C#N)C(C)=O` has a log2FC [1] of -0.884, a log2FC [2] of -0.665 and a log2FC [3] of -2.17. It also gave a log2FC [4] of 1.18, a log2FC [5] of -1.04 and a log2FC [6] of -1.04. It also gave a log2FC [7] of -0.753, a log2FC [8] of -2.61 and a log2FC [9] of 0.796. It also gave a log2FC [10] of 1.24, a log2FC [11] of 0.54 and a log2FC [12] of -0.673. It also gave a log2FC [13] of 0.635, a log2FC [14] of 1.94 and a log2FC [15] of 2.11. The log2FC [16] was -1.84, the log2FC [17] was 0.773 and the log2FC [18] was 1.55. For the same molecule, the log2FC [19] was -0.656, the log2FC [20] was -3.34 and the log2FC [21] was 0.732. For the same molecule, the log2FC [22] was 1.86, the log2FC [23] was -0.738 and the log2FC [24] was 0.617. For the same molecule, the log2FC [25] was 0.609, the log2FC [26] was 3.98 and the log2FC [27] was -0.801. For the same molecule, the log2FC [28] was -0.576, the log2FC [29] was 0.704 and the log2FC [30] was 2.04. The log2FC [31] was 1.55 and the log2FC [32] was 0.703.
